No constants are given. Whether binding was seen depends on the method and setting. Some entries that bind do so weakly or less than the wild type.
Target: Rad53 (S. cerevisiae) (UniProt P22216)
Assay: two-hybrid; MCK1 in pGADT7, RAD53 in pGBKT7; strain AH109; growth on SC-Trp-Leu or SC-Trp-Leu-His plates with 0.5 mM 3-amino-triazole (3AT)

Sequences of proteins named here, by UniProt entry; tags and fusion partners are left off.
UniProt P22216: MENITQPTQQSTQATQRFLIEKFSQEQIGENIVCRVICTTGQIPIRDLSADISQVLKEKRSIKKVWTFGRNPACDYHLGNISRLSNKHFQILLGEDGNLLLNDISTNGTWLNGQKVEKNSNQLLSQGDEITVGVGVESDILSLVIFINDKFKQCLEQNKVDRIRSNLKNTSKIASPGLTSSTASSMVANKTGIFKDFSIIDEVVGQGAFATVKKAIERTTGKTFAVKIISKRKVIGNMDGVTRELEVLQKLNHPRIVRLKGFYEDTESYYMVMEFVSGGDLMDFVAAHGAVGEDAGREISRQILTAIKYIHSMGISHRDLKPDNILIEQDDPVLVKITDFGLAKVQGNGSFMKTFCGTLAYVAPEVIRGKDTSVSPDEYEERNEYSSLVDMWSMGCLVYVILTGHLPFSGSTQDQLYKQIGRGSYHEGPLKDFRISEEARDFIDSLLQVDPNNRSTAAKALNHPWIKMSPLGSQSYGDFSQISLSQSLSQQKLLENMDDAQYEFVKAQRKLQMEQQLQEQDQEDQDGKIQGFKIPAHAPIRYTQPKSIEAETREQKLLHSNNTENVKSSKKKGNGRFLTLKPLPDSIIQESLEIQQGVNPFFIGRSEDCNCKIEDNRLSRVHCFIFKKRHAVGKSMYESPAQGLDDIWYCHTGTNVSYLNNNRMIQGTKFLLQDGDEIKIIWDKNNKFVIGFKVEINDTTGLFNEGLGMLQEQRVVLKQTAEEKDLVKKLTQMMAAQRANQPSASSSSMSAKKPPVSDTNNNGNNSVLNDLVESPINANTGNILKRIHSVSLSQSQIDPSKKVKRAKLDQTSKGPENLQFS

B1: Mck1 (enzyme, UniProt P21965 1-375)
chain: MSTEEQNGVPLQRGSEFIADDVTSNKSNNTRRMLVKEYRKIGRGAFGTVVQAYLTQDKKNWLGPFAIKKVPAHTEYKSRELQILRIADHPNIVKLQYFFTHLSPQDNKVYQHLAMECLPETLQIEINRYVTNKLEMPLKHIRLYTYQIARGMLYLHGLGVCHRDIKPSNVLVDPETGVLKICDFGSAKKLEHNQPSISYICSRFYRAPELIIGCTQYTTQIDIWGLGCVMGEMLIGKAIFQGQEPLLQLREIAKLLGPPDKRFIFFSNPAYDGPLFSKPLFSGSSQQRFEKYFGHSGPDGIDLLMKILVYEPQQRLSPRRILAHQFFNELRNDDTFLPRGFTEPIKLPNLFDFNDFELQILGEFADKIKPTKVAE
binding: binds
